Assay results from patent US20170342169A1.
Results are given in words; binding and its absence hold for the method and conditions named. A result given as binding can be weak or reduced; the word gives no strength.

B1: TABBY106-rIgG1 (antibody, V domains shown)
VH: QVQLQQSGAELAKPGTSVKLSCKASGYTFTSYYIYWVKQRPGQGLEWIGNIWPGNGGTFYGEKFMGKATFTADTSSSTAYMLLGSLTPEDSAYYFCARRPDYSGDDYFDYWGQGVLVTVSS
VL: QVVLTQPKSVSTSLKSTVKLSCKLNSGNIGSYYVHWYQQHAGRSPTTMIYRDDKRPDGVPDRFSGSIDSSSNSAFLTINNVQTEDDAIYFCHSYDSTITPVFGGGTKLTVL
B2: TABBY107-rIgG1 (antibody, V domains shown)
VH: QVKLVQSGAALVKPGASVKMSCKASDYTFNDYWVSWVKQRHGESLEWIGEIYPNSGATNFNGKFRGKATLTVDNPTSTAYMELSRLTSEDSAIYYCTREYTRDWFAYWGQGTLVTVSS
VL: DVVLTQTPSILSATIGQSVSISCRSSQSLLDSDGNTYLYWFLQRPGQSPQRLIYLVSNLGSGVPNRFSGSGSGTDFTLKISGVEAEDLGIYYCMQPTHAPYTFGAGTKLELK

Target: cynomolgus 4-1BB (cynomolgus)
Test: SPR

Row | Binder | binding
1 | B1 | binds
2 | B2 | binds
